Laboratory results taken from PMC7110113, “Termination of non‐coding transcription in yeast relies on both an RNA Pol II CTD interaction domain and a CTD‐mimicking region in Sen1” (The EMBO Journal, 2020).
Results are given in words; binding and its absence hold for the method and conditions named. Binding seen in cells or lysates may run through a third protein. Some results given as binding are weak or reduced against the parent protein; the word gives no strength. For some of these results: Tags and fused reporters may be left off the sequences shown.

Chains of the proteins cited; added tags and fusions are not shown.
UniProt P04050: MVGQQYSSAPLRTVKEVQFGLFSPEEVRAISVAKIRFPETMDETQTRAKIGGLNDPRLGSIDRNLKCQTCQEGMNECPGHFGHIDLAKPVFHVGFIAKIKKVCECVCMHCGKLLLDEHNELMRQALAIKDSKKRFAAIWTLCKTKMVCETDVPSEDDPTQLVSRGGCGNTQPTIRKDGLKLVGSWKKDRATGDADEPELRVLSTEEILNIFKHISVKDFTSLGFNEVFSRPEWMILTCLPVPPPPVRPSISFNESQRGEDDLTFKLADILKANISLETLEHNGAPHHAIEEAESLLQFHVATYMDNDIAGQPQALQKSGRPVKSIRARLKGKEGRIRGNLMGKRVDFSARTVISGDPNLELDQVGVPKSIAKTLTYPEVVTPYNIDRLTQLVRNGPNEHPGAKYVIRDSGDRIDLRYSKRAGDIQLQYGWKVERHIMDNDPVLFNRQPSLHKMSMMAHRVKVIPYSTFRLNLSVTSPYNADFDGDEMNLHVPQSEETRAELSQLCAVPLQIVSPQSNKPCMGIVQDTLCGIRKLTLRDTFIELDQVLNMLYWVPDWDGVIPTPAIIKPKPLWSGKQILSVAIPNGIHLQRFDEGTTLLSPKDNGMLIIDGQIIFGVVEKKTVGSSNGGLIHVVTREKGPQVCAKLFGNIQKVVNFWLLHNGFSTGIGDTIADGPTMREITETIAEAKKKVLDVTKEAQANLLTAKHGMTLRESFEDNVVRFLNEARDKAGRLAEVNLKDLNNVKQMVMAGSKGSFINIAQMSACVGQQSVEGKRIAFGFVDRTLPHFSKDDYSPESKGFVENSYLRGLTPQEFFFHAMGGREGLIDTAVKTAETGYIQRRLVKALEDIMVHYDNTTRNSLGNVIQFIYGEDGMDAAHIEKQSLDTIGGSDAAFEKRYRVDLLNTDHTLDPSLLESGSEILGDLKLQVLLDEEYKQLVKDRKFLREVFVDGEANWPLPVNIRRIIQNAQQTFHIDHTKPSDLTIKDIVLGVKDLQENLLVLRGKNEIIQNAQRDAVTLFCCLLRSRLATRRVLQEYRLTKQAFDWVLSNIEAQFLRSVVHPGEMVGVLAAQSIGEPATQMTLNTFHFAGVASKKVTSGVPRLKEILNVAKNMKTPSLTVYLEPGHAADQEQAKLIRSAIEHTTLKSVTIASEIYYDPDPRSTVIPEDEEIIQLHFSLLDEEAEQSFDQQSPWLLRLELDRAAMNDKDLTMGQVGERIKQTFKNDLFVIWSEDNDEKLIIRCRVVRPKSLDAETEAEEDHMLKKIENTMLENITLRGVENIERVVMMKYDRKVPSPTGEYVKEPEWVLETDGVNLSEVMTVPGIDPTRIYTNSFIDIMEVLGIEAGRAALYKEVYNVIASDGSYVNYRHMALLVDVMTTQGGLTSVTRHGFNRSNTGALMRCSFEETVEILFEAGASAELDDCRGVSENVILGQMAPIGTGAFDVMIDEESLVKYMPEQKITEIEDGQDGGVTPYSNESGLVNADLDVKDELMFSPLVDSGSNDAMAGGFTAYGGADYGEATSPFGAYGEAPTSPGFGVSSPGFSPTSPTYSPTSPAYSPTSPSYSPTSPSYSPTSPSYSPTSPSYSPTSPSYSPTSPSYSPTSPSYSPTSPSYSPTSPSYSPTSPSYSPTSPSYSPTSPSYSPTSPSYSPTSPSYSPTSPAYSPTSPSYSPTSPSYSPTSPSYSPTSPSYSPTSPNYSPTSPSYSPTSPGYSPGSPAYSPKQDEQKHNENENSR

T1: TAP-Sen1ΔNter (S. cerevisiae) (UniProt Q00416)
T1 sequence: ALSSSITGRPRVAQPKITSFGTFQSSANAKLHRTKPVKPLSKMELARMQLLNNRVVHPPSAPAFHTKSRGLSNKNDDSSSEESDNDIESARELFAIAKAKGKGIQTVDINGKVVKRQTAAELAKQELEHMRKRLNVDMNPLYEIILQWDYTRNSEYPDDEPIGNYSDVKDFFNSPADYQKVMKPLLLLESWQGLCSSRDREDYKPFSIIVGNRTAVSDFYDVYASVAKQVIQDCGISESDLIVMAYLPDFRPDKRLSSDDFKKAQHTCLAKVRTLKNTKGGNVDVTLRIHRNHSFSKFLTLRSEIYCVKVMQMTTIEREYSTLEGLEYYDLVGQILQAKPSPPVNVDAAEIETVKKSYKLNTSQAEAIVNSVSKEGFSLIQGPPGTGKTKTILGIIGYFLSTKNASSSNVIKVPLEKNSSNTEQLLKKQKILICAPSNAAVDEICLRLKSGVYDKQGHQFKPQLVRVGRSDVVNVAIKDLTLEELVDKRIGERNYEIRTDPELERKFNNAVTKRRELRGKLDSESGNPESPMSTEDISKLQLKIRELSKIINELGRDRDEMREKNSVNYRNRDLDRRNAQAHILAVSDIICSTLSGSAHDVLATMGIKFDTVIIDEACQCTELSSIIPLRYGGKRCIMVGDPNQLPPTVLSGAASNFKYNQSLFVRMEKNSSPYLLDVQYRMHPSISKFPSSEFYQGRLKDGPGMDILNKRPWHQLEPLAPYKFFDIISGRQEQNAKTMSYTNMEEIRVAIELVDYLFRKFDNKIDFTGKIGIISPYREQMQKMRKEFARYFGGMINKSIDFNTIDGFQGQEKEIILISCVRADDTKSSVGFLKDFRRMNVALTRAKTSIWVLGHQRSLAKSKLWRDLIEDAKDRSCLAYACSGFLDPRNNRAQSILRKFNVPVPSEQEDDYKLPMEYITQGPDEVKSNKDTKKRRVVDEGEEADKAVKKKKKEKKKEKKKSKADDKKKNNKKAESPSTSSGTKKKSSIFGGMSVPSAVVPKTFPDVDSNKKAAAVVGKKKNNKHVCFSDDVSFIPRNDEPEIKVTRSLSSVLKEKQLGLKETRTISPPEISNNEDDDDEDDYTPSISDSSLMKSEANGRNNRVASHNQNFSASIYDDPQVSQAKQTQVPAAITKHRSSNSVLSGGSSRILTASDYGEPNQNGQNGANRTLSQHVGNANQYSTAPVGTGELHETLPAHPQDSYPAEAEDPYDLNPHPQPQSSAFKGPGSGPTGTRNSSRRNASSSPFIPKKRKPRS

T2: Nrd1-TAP (S. cerevisiae) (UniProt P53617)
T2 sequence: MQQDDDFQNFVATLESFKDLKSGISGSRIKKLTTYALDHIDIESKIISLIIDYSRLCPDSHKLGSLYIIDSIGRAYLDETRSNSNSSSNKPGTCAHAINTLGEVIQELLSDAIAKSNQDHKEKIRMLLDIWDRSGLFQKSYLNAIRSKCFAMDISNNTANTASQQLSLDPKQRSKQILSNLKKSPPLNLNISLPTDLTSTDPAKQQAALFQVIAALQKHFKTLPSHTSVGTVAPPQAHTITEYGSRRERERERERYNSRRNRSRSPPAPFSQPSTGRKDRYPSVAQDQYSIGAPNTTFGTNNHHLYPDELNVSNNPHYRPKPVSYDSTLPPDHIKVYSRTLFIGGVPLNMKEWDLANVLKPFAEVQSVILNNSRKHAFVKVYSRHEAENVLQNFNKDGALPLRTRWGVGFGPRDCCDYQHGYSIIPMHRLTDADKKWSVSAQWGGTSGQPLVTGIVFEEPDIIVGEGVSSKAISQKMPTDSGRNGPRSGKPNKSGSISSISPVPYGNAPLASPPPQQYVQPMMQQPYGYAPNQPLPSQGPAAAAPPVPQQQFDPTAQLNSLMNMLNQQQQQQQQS

T3: His6-GST-tagged Sen1 Cter (S. cerevisiae) (UniProt Q00416)
T3 sequence: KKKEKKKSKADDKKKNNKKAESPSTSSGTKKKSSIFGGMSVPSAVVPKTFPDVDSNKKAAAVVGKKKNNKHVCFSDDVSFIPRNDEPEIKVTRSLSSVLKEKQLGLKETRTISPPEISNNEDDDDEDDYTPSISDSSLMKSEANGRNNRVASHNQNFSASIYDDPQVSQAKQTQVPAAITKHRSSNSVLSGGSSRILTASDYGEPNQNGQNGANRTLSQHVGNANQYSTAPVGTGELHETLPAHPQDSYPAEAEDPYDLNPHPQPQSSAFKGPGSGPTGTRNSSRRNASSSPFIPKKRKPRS


Assays:
[1] = target: TAP-Sen1 (S. cerevisiae) (UniProt Q00416); test: co-IP; TAP-Sen1 (wt or ΔNter) as the bait, expressed from pGAL in galactose; IgG Sepharose; extracts treated with RNaseA before immunoprecipitation; blots with antibodies against CTD forms
[2] = target: T1, TAP-Sen1ΔNter (S. cerevisiae); test: as above
[3] = target: T2, Nrd1-TAP (S. cerevisiae); test: co-IP; TAP-tagged Nrd1 (wt or ∆CID) as bait on IgG Fast Flow Sepharose from yeast extracts; lysis buffer 10 mM sodium phosphate pH 7, 200 mM sodium acetate, 0.25% NP-40, 2 mM EDTA, 1 mM EGTA, 5% glycerol; Sen1 detected by blot (Fig 1A, 1C, EV3E)
[4] = target: T3, His6-GST-tagged Sen1 Cter (S. cerevisiae); test: pull-down; E. coli extract with His6-GST-Sen1 Cter (wt or ∆NIM) incubated with glutathione sepharose, then mixed with yeast extract expressing Sen1 TAP-Nter; extracts treated with 50 μg/ml RNase A; washed with lysis buffer (10 mM sodium phosphate pH 7, 200 mM sodium acetate, 0.25% NP-40); eluted with glutathione
[5] = target: HA-tagged Sen1 (S. cerevisiae) (UniProt Q00416); test: co-IP; HA-tagged Sen1 (wt or ∆NIM) as bait, anti-HA 12CA5 and Protein A Dynabeads, 4°C; extracts treated with RNaseA before immunoprecipitation; Nrd1 and Nab3 detected by blot (Fig 1D)
[6] = target: Sen1ΔNIM-HA (S. cerevisiae) (UniProt Q00416); test: co-IP; HA-tagged Sen1 (wt or ΔNIM) as the bait; anti-HA 12CA5 and Protein A beads; extracts treated with RNaseA prior to immunoprecipitation

Row | binding [1] | binding [2] | Molecule | also measured
1 | binds | binds | RNAPII largest subunit Rpb1 with S7-phosphorylated CTD (from UniProt P04050 1-1733) | –
2 | binds | binds | RNAPII largest subunit Rpb1 with T4-phosphorylated CTD (from UniProt P04050 1-1733) | –
3 | binds | binds | RNAPII largest subunit Rpb1 with unphosphorylated CTD (from UniProt P04050 1-1733) | –
4 | – | – | Sen1 (from UniProt Q00416 1-2231) | binding [3]: binds
5 | – | – | Sen1 TAP-Nter (domain or fragment, UniProt Q00416 1-975) MNSNNPDNNNSNNINNNNKDKDIAPNSDVQLATVYTKAKSYIPQIEQVYQGTNPNIQEAKLLGELLQVLAEVPKGTHLFCDPILEPISIFSLTIFSFNEEATATWLKNHFNPILSVCDKCILNFARGKCKMLQHFAIQRHVPHEHVAKFNDIVCQWRVEAVFPILRNISVNDNTGINITNEIETAMYECLCNPHMLRLNKQLKATFEAIFKFFYDTKHRLLDVTNPLSIKTFISGVIFCWCEGSKEENEWSRAFLKDLYSRNFHINLSNLTPDIIEEVYIHILFLQNPANWTEIVVSQFWSRLLPVFNLFDKDVFIEYFQVPKNVESLKKTFKFPLEPIFKMWYNHLSKSYHDKPLDFLLRGLTMFLNKFGSEFWSKIEPFTFHSILDIIFNRDSFPIKLIKIQDNPIVEHQTEVYFQLTGSVTDLLSWTLPFYHALSPSKRIQMVRKVSMAFLRIIANYPSLKSIPKACLMNSATALLRAVLTIKENERAMLYKNDEFETVLLTKTDSRALLNNPLIQDIIIRSASNPNDFYPGLGAASASVATSTMMVLAECIDFDILLLCHRTFKLYSGKPISEIPISTNVLENVTNKIDLRSFHDGPLLAKQLLVSLKNINGLLIVPSNTAVAEAHNALNQKFLLLSTRLMEKFADILPGQLSKILADEDASQGFWSCIFSSDKHLYQAATNILYNTFDVEGRLEGILAILNSNLTVNLKNINVMLQRLINCEFYEPCPRAVRVLMDVVSAFVDPISGVFANFQTLKSQNTEKEFLKFWESCWLFLDTIYKFTLKWASKYDYSELENFTKDTLDLSRSLVDSFREFSDILHDQTKNLLLNVLETFKNMLYWLRLSDEVLLESCVRLIISTSDLAHEKHVKVDDSLVEMMAKYASKAKRFSNKLTEQQASEILQKAKIFNKALTEEVATEAENYRKEKELSRLGKVIDLTDSVPASPSLSPSLSSTIASSSAESRADYLQRK | binding [4]: binds
6 | – | – | Nrd1 (protein, UniProt P53617 1-575) MQQDDDFQNFVATLESFKDLKSGISGSRIKKLTTYALDHIDIESKIISLIIDYSRLCPDSHKLGSLYIIDSIGRAYLDETRSNSNSSSNKPGTCAHAINTLGEVIQELLSDAIAKSNQDHKEKIRMLLDIWDRSGLFQKSYLNAIRSKCFAMDISNNTANTASQQLSLDPKQRSKQILSNLKKSPPLNLNISLPTDLTSTDPAKQQAALFQVIAALQKHFKTLPSHTSVGTVAPPQAHTITEYGSRRERERERERYNSRRNRSRSPPAPFSQPSTGRKDRYPSVAQDQYSIGAPNTTFGTNNHHLYPDELNVSNNPHYRPKPVSYDSTLPPDHIKVYSRTLFIGGVPLNMKEWDLANVLKPFAEVQSVILNNSRKHAFVKVYSRHEAENVLQNFNKDGALPLRTRWGVGFGPRDCCDYQHGYSIIPMHRLTDADKKWSVSAQWGGTSGQPLVTGIVFEEPDIIVGEGVSSKAISQKMPTDSGRNGPRSGKPNKSGSISSISPVPYGNAPLASPPPQQYVQPMMQQPYGYAPNQPLPSQGPAAAAPPVPQQQFDPTAQLNSLMNMLNQQQQQQQQS | binding [5]: binds
7 | – | – | Nab3 (protein, UniProt P38996 1-802) MSDENHNSDVQDIPSPELSVDSNSNENELMNNSSADDGIEFDAPEEEREAEREEENEEQHELEDVNDEEEEDKEEKGEENGEVINTEEEEEEEHQQKGGNDDDDDDNEEEEEEEEDDDDDDDDDDDDEEEEEEEEEEGNDNSSVGSDSAAEDGEDEEDKKDKTKDKEVELRRETLEKEQKDVDEAIKKITREENDNTHFPTNMENVNYDLLQKQVKYIMDSNMLNLPQFQHLPQEEKMSAILAMLNSNSDTALSVPPHDSTISTTASASATSGARSNDQRKPPLSDAQRRMRFPRADLSKPITEEEHDRYAAYLHGENKITEMHNIPPKSRLFIGNLPLKNVSKEDLFRIFSPYGHIMQINIKNAFGFIQFDNPQSVRDAIECESQEMNFGKKLILEVSSSNARPQFDHGDHGTNSSSTFISSAKRPFQTESGDMYNDDNGAGYKKSRRHTVSCNIFVKRTADRTYAIEVFNRFRDGTGLETDMIFLKPRMELGKLINDAAYNGVWGVVLVNKTHNVDVQTFYKGSQGETKFDEYISISADDAVAIFNNIKNNRNNSRPTDYRAMSHQQNIYGAPPLPVPNGPAVGPPPQTNYYQGYSMPPPQQQQQQPYGNYGMPPPSHDQGYGSQPPIPMNQSYGRYQTSIPPPPPQQQIPQGYGRYQAGPPPQPPSQTPMDQQQLLSAIQNLPPNVVSNLLSMAQQQQQQPHAQQQLVGLIQSMQGQAPQQQQQQLGGYSSMNSSSPPPMSTNYNGQNISAKPSAPPMSHQPPPPQQQQQQQQQQQQQQQQPAGNNVQSLLDSLAKLQK | binding [6]: no binding
